Results: PubChem BioAssay AID1508600 (Functional Genomics Laboratory (NCATS/FGL), 2020)
Out of some 53,000 sequences screened, about 3,700 (7%) were called active.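 How the source made its calls: active means gene knockdowns whose robust z-score for IL-1 alpha signal is at least 2 or at most -2, so actives lie on both sides; inactive means the rest.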 The list shows a part of the results.

Experiment: Components of the Cytosolic LPS Sensing Pathway: Gene Identification via Genome-wide siRNA Screen;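 further: robust z of the log signal after scaling to non-targeting control siRNA wells of the plate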
Settings: RAW264.7 macrophages, IL-1a HTRF, actives lie on both sides, screened at 100 nM (by protocol), cells primed 5 h with Pam3CSK4 first
Outline: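 RAW264.7; siRNA 100 nM final, RNAiMAX, 48h 37 degrees C; Pam3CSK4 5 h; LipidA + TransIT-TKO 24 h; IL-1a HTRF; CellTiter-Glo viability; robust z vs negative-control median.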

Which z-score does the source give for GGCAUUGUAGAGAUGACUCTT against Trmt2b here?
The z-score was inactive: 1.81.

For CCCUACCUUGAACGAGUACTT against Apoa1, which z-score is on record?
The z-score was inactive: -1.02.

Which z-score does the source give for GGUGGACUGGAUCUGAAUGTT against Caap1 here?
Its z-score is inactive: -1.33.

Which z-score does the source give for GCACACCAGAACUGCAGCUTT against Olfr967 here?
The z-score was inactive: -0.724.

For GGCUGUUGAGUAUAUAUAUTT against Slc6a8, which z-score is on record?
Its z-score is inactive: 0.309.

Which z-score does the source give for GGAAAGCUUGAAUGUUGAGTT against Mup3 here?
Its z-score is inactive: 1.44.

With GGGAGCAAAAGCUUUACUUTT against Prl3c1 as the sequence, how does the z-score read?
The z-score was active: 2.25.

For GCAUCAUUUCUGGGAUGGGTT against Scrg1, which z-score is on record?
Its z-score is inactive: 0.0371.

For GGUCUACAGGCAUCAAUGATT against Nr5a1, which z-score is on record?
The z-score was inactive: 0.425.

Which z-score does the source give for GGAUAGAGACUGAUGCUCATT against Sh2d1b1 here?
Its z-score is inactive: -0.226.

With GGACAGGAUGAGUUUGACATT against Rhou as the sequence, how does the z-score read?
Its z-score is inactive: -1.52.

Which z-score does the source give for GGCUCAUUCACUAAUCCGATT against Gemin2 here?
The z-score was inactive: 0.0536.

With CAUGUCAUGCACAAUAGUUTT against Cd200r4 as the sequence, how does the z-score read?
The z-score was inactive: -0.863.

Which z-score does the source give for CCACCCUGCACAGAAUCUATT against Ppp2r5c here?
Its z-score is inactive: 0.396.

For CCAUUGAUGUUUGAUCGGATT against Fndc4, which z-score is on record?
The z-score was inactive: -0.849.

For GGGCUUUGACUUCAAGACUTT against Mat1a, which z-score is on record?
The z-score was inactive: -0.14.

Which z-score does the source give for GGGUCAGAAUGUUUCCUUCTT against Olfr331 here?
The z-score was inactive: 0.946.

Which z-score does the source give for GGAAAUGCUUGUUAAGGCUTT against Rwdd3 here?
Its z-score is inactive: 0.0372.

Which z-score does the source give for GGCGUAGAUGAGUUGGAAATT against Tceal8 here?
The z-score was inactive: 0.544.

For GCGUGGUGAACAACUAUGCTT against Slc35b4, which z-score is on record?
The z-score was inactive: 0.3.

Which z-score does the source give for GGGAAGUUCGAGCCAAUGUTT against Batf here?
The z-score was inactive: 1.5.

For GCCUUAGGCCUUUGUUUCCTT against Tpgs2, which z-score is on record?
Its z-score is inactive: 0.124.

With GCAUCGUUUGUGAGAAUUUTT against Perp as the sequence, how does the z-score read?
Its z-score is inactive: -0.61.

Which z-score does the source give for GGUAAUGUAUUUCAGCUCCTT against Slc6a17 here?
Its z-score is inactive: -0.527.

For GGCUCUUAGAUACACUUGUTT against Dnajc12, which z-score is on record?
Its z-score is inactive: -1.94.

With GCCGAGGUAUCCCUUGUUUTT against Sestd1 as the sequence, how does the z-score read?
Its z-score is inactive: -0.455.

Which z-score does the source give for GCAAACGAGCUAGUUGUAUTT against Olfr1137 here?
The z-score was inactive: 0.481.

With GUUCUGAGAAGAAACCCAUTT against Vmn1r208 as the sequence, how does the z-score read?
Its z-score is inactive: -0.292.

With GGAGCAGUUCCAUAUGUGCTT against Cap1 as the sequence, how does the z-score read?
The z-score was inactive: 1.75.

With GGAAAAGGAUAAGGAAAGCTT against Zfhx3 as the sequence, how does the z-score read?
Its z-score is inactive: 1.61.

For GGAGUUGGAGUUUAUAUUATT against Olfr846, which z-score is on record?
The z-score was inactive: 0.0237.

Which z-score does the source give for CCAUAAGUUUGAAGAAUCCTT against Glg1 here?
Its z-score is inactive: 1.45.

With CCCAAAAUGACAUAACAGATT against Pilra as the sequence, how does the z-score read?
Its z-score is inactive: -0.568.

Which z-score does the source give for CCGCUUCUCUAGUGAAUAATT against Uros here?
The z-score was inactive: -1.56.

For GCUGGCUAGUUUGGGCAUATT against Tsc22d4, which z-score is on record?
The z-score was inactive: 1.27.

For GGGCUCUUAUGUGAACUUUTT against Lman2, which z-score is on record?
Its z-score is inactive: 0.373.

For GUCUGAGAGGAUUGAAACUTT against Manbal, which z-score is on record?
The z-score was inactive: -0.7.

For GGAUAACUCUUUCAAAGACTT against Lrit2, which z-score is on record?
Its z-score is inactive: 0.768.

With GGCAUCUUCAUCAAGGAUUTT against Sf3a1 as the sequence, how does the z-score read?
The z-score was inactive: -1.1.

For GCGUAAAUCUCCACACUACTT against Vmn1r54, which z-score is on record?
Its z-score is inactive: -1.57.

With CGUAGCUGUAAUUCUUCAGTT against Pcdhgb2 as the sequence, how does the z-score read?
The z-score was active: 2.02.

With CGUGAUGGACAGUUUAGACTT against Cenpj as the sequence, how does the z-score read?
Its z-score is inactive: -1.48.

For GCUCCUACUACUGCUUUGCTT against Crem, which z-score is on record?
The z-score was inactive: 0.979.

Which z-score does the source give for GCCACCUCAUGAAUAAAAGTT against Cd8b1 here?
Its z-score is inactive: -1.94.

With GGGUGAGAAUCAGCUAUACTT against Coro7 as the sequence, how does the z-score read?
Its z-score is inactive: -0.37.

For GCUCUGUAAUAUACUUGUATT against Gtf2i, which z-score is on record?
Its z-score is inactive: -1.62.

For CCGAUUUGGGUCAAUUUUATT against Usf3, which z-score is on record?
The z-score was inactive: -0.047.

For GGAGUGACAAAAGAAAUAATT against Nudt12, which z-score is on record?
The z-score was inactive: 0.489.

With GGACAUCUGGAUGUUCCCATT against Pgghg as the sequence, how does the z-score read?
The z-score was inactive: -1.1.

Which z-score does the source give for GGACAUUACACUGUUCAAATT against Kcnh5 here?
The z-score was inactive: 1.43.

For GGACCACUUUUUCAGACUCTT against Ralgapa1, which z-score is on record?
Its z-score is inactive: 0.945.

For GGACCGUCAGUGUCAUGGATT against Zfp397, which z-score is on record?
Its z-score is active: -2.55.

With GGUGUUUUAAGAUUGAAUGTT against Ccn1 as the sequence, how does the z-score read?
Its z-score is inactive: 0.782.

With CCAAGUCUUGUAGUGGAGUTT against Vdac3 as the sequence, how does the z-score read?
The z-score was inactive: -0.269.

For GCAGCCUUCGUGAGUCUGUTT against Asb1, which z-score is on record?
Its z-score is inactive: -0.666.

For AGUGCCUGUCUGAUUGCUCTT against Epsti1, which z-score is on record?
The z-score was inactive: -0.469.

Which z-score does the source give for GGCGAGCGACUGUGUAAAGTT against Ccp110 here?
The z-score was inactive: 0.593.

For GACCUAAGCUCAUUGACCUTT against Vmn1r13, which z-score is on record?
The z-score was inactive: 0.356.

For GGUACUCGAAUCUGACCUCTT against Nqo1, which z-score is on record?
Its z-score is active: 2.04.

With GCACCGAGUGCAAUAGUGUTT against Kremen1 as the sequence, how does the z-score read?
Its z-score is inactive: -0.129.

With GGUCUAGCUCCAAUUGGAUTT against Inca1 as the sequence, how does the z-score read?
Its z-score is inactive: -0.631.

With UGGUCGGCUAGAUGAUGGATT against Wdr34 as the sequence, how does the z-score read?
Its z-score is inactive: -0.7.

For GAACCUUUUCCGUUUCGAGTT against Cebpb, which z-score is on record?
The z-score was inactive: -1.14.

For CCAUGUUCUUCUAUGGCUCTT against Sharpin, which z-score is on record?
The z-score was inactive: -1.36.

With GGAAUGCAGAAAUGAAAAATT against Olfr1234 as the sequence, how does the z-score read?
The z-score was inactive: -0.909.

With GCUGUAUCAGUCUUUCUAUTT against Cyp27b1 as the sequence, how does the z-score read?
The z-score was inactive: 0.442.

For GGAUCAUGAACUCUUAGAATT against Gin1, which z-score is on record?
Its z-score is inactive: 0.079.

With GGCUGAUCCUAAGAAAGAATT against Rusf1 as the sequence, how does the z-score read?
Its z-score is inactive: -0.657.
